Measurements reported in the supplement of paper PMC11060735.
Where a name gives a salt, the structure may show the parent alone. ± gives the standard deviation of the averaged measurements. Over roughly 1,800 compounds, “GFP- (p16Ink4a-) cell count relative to negative-control wells” has its median near 0.99; the lowest 2% begin near 0.5. This is one part of the list.

tested on: mouse p16Ink4a+/- lung fibroblasts (INKBRITE, bleomycin-injured); experiment: GFP- (p16Ink4a-) cell count relative to negative-control wells (fold of vehicle); higher = more p16Ink4a- cells surviving; details: 1 µM; 3 days

Compared with `Clc1ccc(C(Cn2ccnc2)OCc2c(Cl)cccc2Cl)c(Cl)c1` (stereo not drawn) [Isoconazole], `Clc1ccccc1CN1CCc2sccc2C1` [Ticlopidine] is lower in GFP-: 1.19 for the first, 0.957 for the second.

Compared with `CO[C@H]1/C=C\C=C(/C)C(=O)NC2=CC(=O)/C(=N\CCN(C)C)C(=C2O)C[C@@H](C)C[C@H](OC)[C@H](O)[C@@H](C)/C=C(\C)[C@@H]1OC(N)=O` [Alvespimycin], `CC[C@H]1OC(=O)C[C@@H](O)[C@H](C)[C@@H](O[C@@H]2O[C@H](C)[C@@H](O[C@H]3C[C@@](C)(O)[C@@H](O)[C@H](C)O3)[C@H](N(C)C)[C@H]2O)[C@@H](CC=O)C[C@@H](C)C(=O)/C=C/C(C)=C/[C@@H]1CO[C@@H]1O[C@H](C)[C@@H](O)[C@@H](OC)[C@H]1OC` [Tylosin Tartrate] is higher in GFP-: 0.64 for the first, 0.988 for the second.

Going from `OCC(O)CN1CCN(c2ccccc2)CC1` (stereo not drawn) [Dropropizine] to `Cc1cccc(CN2CCN(C(c3ccccc3)c3ccc(Cl)cc3)CC2)c1` (stereo not drawn) [Meclizine], the GFP- rises from 0.873 to 0.96.

Going from `CC[C@H](CO)Nc1nc(NCc2ccccc2)c2ncn(C(C)C)c2n1` [Roscovitine, Seliciclib] to `CCOc1nc2cccc(C(=O)O)c2n1Cc1ccc(-c2ccccc2-c2nn[nH]n2)cc1` [Candesartan], the GFP- falls from 1.15 to 1.02.

First: CC1(C)CC(=O)c2c(C(F)(F)F)nn(-c3ccc(C(N)=O)c(N[C@H]4CC[C@H](O)CC4)c3)c2C1
Second: CN1C2CCCC1CC(NC(=O)c1nn(C)c3ccccc13)C2 (stereo not drawn) [Granisetron Hydrochloride]
The GFP- of the first is lower: 0.624 for the first, 1.08 for the second.

First: CNC(=O)CN1CCC(Oc2cc3c(Nc4cccc(Cl)c4F)ncnc3cc2OC)CC1 [Sapitinib]
Second: O=C(c1cccc(Cl)c1F)N1CCN(Cc2cccc(Nc3nccs3)n2)CC1
The GFP- of the first is lower: 0.948 for the first, 1.11 for the second.

First: CC[C@@H]1C(=O)OC[C@@H]1Cc1cncn1C [Pilocarpine]
Second: CCS(=O)(=O)CCn1c([N+](=O)[O-])cnc1C [Tinidazole]
The GFP- of the first is lower: 1.04 for the first, 1.1 for the second.

Compared with `CC(C)NCC(O)c1ccc(O)c(O)c1` (stereo not drawn) [Isoprenaline], `CN(C)C(=O)[C@H](O)[C@H](Cc1ccccc1)NC(=O)c1cc2cc(Cl)ccc2[nH]1` is lower in GFP-: 1.01 for the first, 0.963 for the second.

First: Cc1cccc(C)c1OCC(=O)N[C@@H](Cc1ccccc1)[C@@H](O)C[C@H](Cc1ccccc1)NC(=O)[C@H](C(C)C)N1CCCNC1=O [Lopinavir]
Second: CC(C)c1nc(CN(C)C(=O)N[C@@H](CCN2CCOCC2)C(=O)N[C@H](CC[C@H](Cc2ccccc2)NC(=O)OCc2cncs2)Cc2ccccc2)cs1 [Cobicistat]
The GFP- of the first is lower: 0.947 for the first, 1.04 for the second.

First: CC1=C(/C=C/C(C)=C/C=C/C(C)=C/C=C/C=C(C)/C=C/C=C(C)/C=C/C2=C(C)CCCC2(C)C)C(C)(C)CCC1 [Beta-carotene]
Second: CCCN1CCCC[C@H]1C(=O)Nc1c(C)cccc1C [Ropivacaine, Ropivacaine Hydrochloride]
The GFP- of the first is lower: 0.931 for the first, 1.08 for the second.

Compared with `N#CC(=C(/N)Sc1ccccc1N)/C(C#N)=C(\N)Sc1ccccc1N`, `C[C@H](NC(=O)[C@@H](O)c1cc(F)cc(F)c1)C(=O)N[C@@H]1C(=O)N(C)c2ccccc2-c2ccccc21` is lower in GFP-: 1.07 for the first, 0.963 for the second.

First: Cc1cn(C2C=CC(CO)O2)c(=O)[nH]c1=O (stereo not drawn) [Stavudine]
Second: COc1nc(N)nc2c1ncn2[C@@H]1O[C@H](CO)[C@@H](O)[C@@H]1O [Nelarabine]
The GFP- of the first is higher: 1.15 for the first, 0.922 for the second.

Compared with `COC1=CC(=O)C[C@@H](C)[C@]12Oc1c(Cl)c(OC)cc(OC)c1C2=O` [Griseofulvin], `C[C@H]1COc2c(N3CCN(C)CC3)c(F)cc3c(=O)c(C(=O)O)cn1c23` [Levofloxacin] is lower in GFP-: 1.16 for the first, 0.911 for the second.

Compared with `Cn1nc(C(C)(C)C)cc1C(=O)N[C@@H](Cc1cccc(Cl)c1)C(=O)NCC#N` [Cathepsin Inhibitor 1], `CCCCNc1cc(C(=O)O)cc(S(N)(=O)=O)c1Oc1ccccc1` [Bumetanide] is higher in GFP-: 1.01 for the first, 1.15 for the second.

First: CC(C)(CO)c1cc2cc(NC(=O)C3(c4ccc5c(c4)OC(F)(F)O5)CC3)c(F)cc2n1C[C@@H](O)CO
Second: O[C@@H](CNC[C@H](O)[C@H]1CCc2cc(F)ccc2O1)[C@@H]1CCc2cc(F)ccc2O1 [Nebivolol]
The GFP- of the first is higher: 1.02 for the first, 0.928 for the second.

Compared with `CCOC(=O)N1CCC(=C2c3ccc(Cl)cc3CCc3cccnc32)CC1` [Loratadine], `CCCCOc1ccc(C(=O)CCN2CCCCC2)cc1` [Dyclonine] is lower in GFP-: 0.899 for the first, 0.894 for the second.

First: O=C(Nc1ccccc1Br)N[C@@H]1CCN(c2ccc(C(F)(F)F)cn2)C1
Second: O=C(NCc1ccc(Oc2ccccc2)cc1)c1nc(-c2cc(Br)c(O)c(Br)c2)no1
The GFP- of the first is higher: 1.22 for the first, 0.936 for the second.

First: NC(=O)c1noc([C@H](CCCC2CCCCC2)CC(=O)NO)n1
Second: NCCCCCNCC12CC3CC(CC(C3)C1)C2 [dihydrobroMide]
The GFP- of the first is lower: 0.703 for the first, 1.19 for the second.

Compared with `CCN(CC)C(=S)SSC(=S)N(CC)CC` [Disulfiram], `CN1CCN(c2cccc(Nc3nc4c(-c5ccc(S(C)(=O)=O)cc5)cccn4n3)c2)CC1` is higher in GFP-: 0.453 for the first, 0.962 ± 0.017 for the second.
